In paper PMC7145593:
No constants are given. Whether binding was seen depends on the method and setting. In cells and extracts the contact can be indirect. A yes stands for co-enrichment or nearness to the bait. Other partners may have been found. For some of these results: Tags and fused reporters may be left off the sequences shown.

The chains behind the UniProt entries cited, without tags or fusion partners.
UniProt Q8I581: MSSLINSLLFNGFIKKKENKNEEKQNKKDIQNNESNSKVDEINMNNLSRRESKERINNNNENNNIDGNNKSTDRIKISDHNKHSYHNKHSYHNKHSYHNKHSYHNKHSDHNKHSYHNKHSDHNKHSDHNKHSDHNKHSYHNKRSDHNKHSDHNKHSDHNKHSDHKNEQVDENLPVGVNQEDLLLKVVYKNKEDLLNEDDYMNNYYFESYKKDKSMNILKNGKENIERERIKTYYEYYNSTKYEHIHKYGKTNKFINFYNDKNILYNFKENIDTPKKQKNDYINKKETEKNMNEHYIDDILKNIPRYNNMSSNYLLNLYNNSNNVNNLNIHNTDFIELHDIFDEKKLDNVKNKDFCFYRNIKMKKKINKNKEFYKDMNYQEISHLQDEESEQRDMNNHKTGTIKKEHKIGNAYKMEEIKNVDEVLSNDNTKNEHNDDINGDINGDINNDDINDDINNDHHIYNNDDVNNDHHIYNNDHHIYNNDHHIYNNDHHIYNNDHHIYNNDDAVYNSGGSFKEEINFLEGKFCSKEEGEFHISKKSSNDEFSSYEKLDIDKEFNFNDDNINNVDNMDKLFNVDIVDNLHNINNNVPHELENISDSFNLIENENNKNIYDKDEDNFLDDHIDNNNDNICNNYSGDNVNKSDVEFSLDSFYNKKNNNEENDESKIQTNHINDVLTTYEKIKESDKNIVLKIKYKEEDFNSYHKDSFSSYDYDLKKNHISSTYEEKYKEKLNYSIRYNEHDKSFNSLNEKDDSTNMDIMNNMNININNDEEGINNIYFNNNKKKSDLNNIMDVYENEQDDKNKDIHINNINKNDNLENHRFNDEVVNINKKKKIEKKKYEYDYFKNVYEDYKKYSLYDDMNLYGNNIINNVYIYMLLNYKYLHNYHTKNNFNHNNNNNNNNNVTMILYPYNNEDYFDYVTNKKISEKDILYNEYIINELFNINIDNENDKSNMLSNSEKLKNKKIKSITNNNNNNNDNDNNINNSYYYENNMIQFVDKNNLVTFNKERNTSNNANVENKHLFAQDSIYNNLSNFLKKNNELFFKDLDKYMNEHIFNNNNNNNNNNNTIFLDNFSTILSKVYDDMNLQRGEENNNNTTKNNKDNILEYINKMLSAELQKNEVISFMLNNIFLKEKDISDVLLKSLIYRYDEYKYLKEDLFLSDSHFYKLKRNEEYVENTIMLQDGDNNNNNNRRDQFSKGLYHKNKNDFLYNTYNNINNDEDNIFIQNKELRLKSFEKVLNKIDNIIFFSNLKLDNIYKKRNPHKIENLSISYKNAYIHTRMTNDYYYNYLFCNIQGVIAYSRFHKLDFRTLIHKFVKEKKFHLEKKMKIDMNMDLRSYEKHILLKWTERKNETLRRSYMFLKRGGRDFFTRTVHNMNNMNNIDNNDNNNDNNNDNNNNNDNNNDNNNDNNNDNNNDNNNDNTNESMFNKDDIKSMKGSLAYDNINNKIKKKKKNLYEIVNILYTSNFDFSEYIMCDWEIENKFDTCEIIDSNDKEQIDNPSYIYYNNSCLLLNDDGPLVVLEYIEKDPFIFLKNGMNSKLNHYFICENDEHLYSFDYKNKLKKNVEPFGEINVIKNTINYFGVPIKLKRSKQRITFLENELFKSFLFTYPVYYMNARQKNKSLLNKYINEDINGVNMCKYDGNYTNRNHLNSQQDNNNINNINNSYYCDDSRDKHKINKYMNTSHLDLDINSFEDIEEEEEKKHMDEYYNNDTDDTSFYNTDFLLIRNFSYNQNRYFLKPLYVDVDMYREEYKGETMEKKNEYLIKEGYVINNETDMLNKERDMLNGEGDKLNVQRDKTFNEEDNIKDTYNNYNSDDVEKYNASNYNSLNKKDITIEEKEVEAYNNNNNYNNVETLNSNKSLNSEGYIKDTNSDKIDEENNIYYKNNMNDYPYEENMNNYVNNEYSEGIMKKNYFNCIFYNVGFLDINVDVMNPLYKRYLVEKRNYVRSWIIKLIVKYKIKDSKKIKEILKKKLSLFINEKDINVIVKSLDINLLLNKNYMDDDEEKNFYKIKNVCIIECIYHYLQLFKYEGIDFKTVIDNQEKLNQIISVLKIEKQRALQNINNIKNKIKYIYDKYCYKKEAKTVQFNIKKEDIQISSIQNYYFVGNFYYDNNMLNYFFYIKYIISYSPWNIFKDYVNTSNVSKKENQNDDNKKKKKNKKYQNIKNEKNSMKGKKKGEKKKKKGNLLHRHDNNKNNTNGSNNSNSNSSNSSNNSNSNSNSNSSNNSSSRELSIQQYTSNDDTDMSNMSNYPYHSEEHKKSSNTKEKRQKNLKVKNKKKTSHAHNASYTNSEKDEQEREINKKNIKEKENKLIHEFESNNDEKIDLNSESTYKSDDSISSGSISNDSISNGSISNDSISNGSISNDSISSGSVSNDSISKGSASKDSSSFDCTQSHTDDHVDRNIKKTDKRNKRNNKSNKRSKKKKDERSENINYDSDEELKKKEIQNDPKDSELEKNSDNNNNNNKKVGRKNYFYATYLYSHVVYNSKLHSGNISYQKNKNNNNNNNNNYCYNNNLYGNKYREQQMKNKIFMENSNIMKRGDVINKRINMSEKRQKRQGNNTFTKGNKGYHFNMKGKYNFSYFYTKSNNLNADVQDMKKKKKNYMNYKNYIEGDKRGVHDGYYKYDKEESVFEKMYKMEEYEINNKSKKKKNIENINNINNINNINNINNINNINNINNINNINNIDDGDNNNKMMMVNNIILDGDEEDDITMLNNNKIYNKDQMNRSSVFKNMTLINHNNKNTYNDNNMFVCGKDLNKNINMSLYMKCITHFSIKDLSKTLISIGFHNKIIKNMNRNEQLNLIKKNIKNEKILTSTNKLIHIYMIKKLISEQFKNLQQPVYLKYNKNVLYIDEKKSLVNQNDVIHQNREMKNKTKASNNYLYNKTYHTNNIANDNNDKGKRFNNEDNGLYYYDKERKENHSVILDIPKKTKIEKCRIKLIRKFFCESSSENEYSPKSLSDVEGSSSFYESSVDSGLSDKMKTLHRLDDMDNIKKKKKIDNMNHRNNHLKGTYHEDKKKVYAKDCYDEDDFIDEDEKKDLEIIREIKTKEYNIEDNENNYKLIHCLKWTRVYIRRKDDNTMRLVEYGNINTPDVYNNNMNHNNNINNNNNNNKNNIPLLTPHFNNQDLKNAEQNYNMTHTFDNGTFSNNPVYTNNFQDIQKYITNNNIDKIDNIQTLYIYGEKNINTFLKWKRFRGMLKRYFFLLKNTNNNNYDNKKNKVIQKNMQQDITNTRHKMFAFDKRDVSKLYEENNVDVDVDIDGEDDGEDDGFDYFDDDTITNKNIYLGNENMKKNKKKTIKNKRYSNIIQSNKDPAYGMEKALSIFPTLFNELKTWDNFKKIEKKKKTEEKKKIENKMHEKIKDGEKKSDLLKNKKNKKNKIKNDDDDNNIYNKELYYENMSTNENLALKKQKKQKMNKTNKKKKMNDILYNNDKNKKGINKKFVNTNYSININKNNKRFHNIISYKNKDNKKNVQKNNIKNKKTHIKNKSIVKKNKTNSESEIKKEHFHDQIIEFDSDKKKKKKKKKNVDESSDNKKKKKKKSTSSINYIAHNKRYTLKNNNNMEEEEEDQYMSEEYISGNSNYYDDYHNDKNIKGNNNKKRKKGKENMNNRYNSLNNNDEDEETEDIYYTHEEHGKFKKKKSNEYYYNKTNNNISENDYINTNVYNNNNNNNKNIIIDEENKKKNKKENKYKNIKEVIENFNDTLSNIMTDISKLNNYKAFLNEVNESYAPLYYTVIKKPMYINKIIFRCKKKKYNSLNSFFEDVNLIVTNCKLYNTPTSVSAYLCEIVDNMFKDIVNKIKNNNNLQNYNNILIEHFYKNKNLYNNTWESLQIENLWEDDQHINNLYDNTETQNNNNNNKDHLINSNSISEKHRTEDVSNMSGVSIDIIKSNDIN

What was measured:
Assay in all cases: affinity purification with mass spectrometry; GFP-Trap or HA-antibody bead pulldown against control beads from nuclear extract of parasite lines with the bait endogenously tagged; dimethyl labelling, label swap; FDR < 10% in at least two reactions
[1] = target: T1, endogenously GFP-tagged BDP1 (P. falciparum (endogenous in 3D7 parasites)) (UniProt Q8IJ72)
T1 sequence: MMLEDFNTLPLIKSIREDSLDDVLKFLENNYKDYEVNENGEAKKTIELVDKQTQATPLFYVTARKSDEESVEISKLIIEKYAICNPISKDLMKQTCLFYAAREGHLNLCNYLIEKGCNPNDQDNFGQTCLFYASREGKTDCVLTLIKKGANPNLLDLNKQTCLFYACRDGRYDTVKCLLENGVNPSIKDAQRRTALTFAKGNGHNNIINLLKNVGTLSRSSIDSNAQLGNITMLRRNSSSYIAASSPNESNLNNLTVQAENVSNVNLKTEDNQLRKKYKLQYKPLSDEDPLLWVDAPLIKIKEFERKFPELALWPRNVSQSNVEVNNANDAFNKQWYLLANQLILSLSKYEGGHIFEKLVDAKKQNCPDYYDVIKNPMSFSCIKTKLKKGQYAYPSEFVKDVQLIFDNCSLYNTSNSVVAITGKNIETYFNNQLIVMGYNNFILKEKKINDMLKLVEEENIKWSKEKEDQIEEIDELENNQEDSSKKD

[2] = target: TAF1/BDP5-AID-GFP (P. falciparum (endogenous in 3D7 parasites)) (UniProt Q8I581)
[3] = target: T2, endogenously 3xHA-tagged BDP2 (P. falciparum (endogenous in 3D7 parasites)) (UniProt Q8I5S4)
T2 sequence: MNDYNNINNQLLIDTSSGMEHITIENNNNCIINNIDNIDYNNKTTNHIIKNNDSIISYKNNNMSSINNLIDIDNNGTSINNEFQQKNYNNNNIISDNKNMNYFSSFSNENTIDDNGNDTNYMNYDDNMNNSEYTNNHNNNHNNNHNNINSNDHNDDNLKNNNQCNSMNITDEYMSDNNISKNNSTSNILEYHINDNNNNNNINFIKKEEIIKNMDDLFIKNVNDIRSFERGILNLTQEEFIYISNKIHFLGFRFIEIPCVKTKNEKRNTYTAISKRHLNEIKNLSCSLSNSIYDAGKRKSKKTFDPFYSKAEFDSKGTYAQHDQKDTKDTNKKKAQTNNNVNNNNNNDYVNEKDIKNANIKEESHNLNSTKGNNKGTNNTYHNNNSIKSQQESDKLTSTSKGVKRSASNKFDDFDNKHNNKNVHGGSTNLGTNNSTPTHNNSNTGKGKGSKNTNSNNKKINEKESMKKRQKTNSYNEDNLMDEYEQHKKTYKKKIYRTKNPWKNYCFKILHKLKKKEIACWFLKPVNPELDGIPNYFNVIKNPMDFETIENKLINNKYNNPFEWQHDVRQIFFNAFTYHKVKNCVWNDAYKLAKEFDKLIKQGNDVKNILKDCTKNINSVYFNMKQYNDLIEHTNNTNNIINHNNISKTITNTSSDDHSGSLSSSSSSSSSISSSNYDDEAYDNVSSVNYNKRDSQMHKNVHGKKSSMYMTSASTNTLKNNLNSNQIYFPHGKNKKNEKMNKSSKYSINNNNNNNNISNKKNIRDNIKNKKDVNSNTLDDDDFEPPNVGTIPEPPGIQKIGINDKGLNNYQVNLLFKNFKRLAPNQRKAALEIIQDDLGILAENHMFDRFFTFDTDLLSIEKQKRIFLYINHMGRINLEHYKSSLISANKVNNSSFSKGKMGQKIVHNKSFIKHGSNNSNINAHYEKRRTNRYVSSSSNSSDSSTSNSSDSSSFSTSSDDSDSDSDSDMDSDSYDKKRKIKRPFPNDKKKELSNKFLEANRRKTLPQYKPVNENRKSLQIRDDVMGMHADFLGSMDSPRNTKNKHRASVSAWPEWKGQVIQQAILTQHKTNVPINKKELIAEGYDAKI

[4] = target: T3, endogenously GFP-tagged BDP4 (P. falciparum (endogenous in 3D7 parasites)) (UniProt Q8IK82)
T3 sequence: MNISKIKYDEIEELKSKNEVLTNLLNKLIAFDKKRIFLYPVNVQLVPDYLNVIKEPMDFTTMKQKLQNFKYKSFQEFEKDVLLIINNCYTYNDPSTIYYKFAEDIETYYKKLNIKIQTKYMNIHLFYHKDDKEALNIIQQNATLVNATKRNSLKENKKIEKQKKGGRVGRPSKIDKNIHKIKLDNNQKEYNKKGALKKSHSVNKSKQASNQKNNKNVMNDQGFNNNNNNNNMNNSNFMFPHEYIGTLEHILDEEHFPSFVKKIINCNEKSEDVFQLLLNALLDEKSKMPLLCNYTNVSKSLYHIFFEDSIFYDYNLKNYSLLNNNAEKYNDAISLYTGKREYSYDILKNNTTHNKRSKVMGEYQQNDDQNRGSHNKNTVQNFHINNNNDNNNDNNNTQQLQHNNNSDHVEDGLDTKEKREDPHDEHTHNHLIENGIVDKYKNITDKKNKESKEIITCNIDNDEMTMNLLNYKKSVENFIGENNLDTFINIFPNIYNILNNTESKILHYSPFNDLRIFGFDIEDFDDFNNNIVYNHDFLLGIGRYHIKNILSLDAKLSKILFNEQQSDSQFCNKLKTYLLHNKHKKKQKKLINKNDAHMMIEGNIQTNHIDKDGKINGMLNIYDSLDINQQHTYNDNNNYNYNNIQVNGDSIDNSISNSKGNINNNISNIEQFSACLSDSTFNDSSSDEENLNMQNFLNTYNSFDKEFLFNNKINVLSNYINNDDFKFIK

Measured: binding

B1: protein with unknown function PF3D7_1124300 (protein, UniProt Q8IIC0 1-525)
chain: MADNNLDKNESDSSCINASDEQKSSEEKDNLGEASVVSNVNENNSSFFTKCFSKIVNFGNNTQENNIPVAHEENNNEDREYNTNESNCNRYDDEEDKKVENFDNNNINNNYLKGDGEKNIHEGGDVHTDFNNEEMINAISNYNKNELNLNRGEIYLNDNEYSFISYIILSSEFRFYPIEETKKKKRRDTLKIDDTITITDTKRIKFDNNNNNNNKIEIRKKENVTDIDADKGSNNHMNEKQVVNNSEDILKKEDEEEENLKKEGGDLLIKGNNVDKVLLDDIDIEKVRSYDKIMDAEERDKLELFDEILIHIKRNFYEKILNIETNFKNLENQIEDNHSFHFRCIIEKLKNRKYDNILYIYNDIYLYHNNLLFLSKPSSYTWMKLHELSTQITNTISDIHHKKYMQKPNRKLYHIDKEEKEKKEKKKEVLKDHEKMEYCINEEEKLAFQLLLSKLNQDTHFELFRKFKNKAVWKTLEGGEIELDDKLTRADVFREMYNWCKFQLEMKNKQSELSDSESDSSKDSY
binds: all assays above
